The assay has as its target T1, TurboID-FGF13-S (human) (UniProt Q92913).
T1 sequence: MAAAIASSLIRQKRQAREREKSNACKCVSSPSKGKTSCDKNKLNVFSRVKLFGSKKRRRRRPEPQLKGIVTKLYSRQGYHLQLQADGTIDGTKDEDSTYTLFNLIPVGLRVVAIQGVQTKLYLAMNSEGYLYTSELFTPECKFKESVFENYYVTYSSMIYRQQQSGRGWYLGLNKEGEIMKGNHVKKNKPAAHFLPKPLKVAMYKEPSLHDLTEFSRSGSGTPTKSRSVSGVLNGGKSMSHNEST
As to the kind of experiment: proximity labelling.

These are yes or no findings as the source states them, for the method shown. Binding seen in cells or lysates may run through a third protein. Here binding means that the protein was enriched with, or labelled near, the bait; the list need not be complete. A no says only that the protein was not detected with the bait.

As for “Sodium channel regulatory subunit β1 (from UniProt P97952 19-218)”, the binding result is “no binding”.

The values are drawn from publication doi:10.1101/2025.11.12.688075.
